Results published in PMC5748837.
These are yes or no findings as the source states them, for the method shown. Some entries that bind do so weakly or less than the wild type.

By UniProt entry, the sequences of proteins in these tests, tags left out. Where a name states a change or a piece, a line headed by the entry shows the natural chain unless it says otherwise. Chains listed by the source or under a name are the forms on record and can include a tag or linker. Residues count along the entry.
UniProt Q68E01: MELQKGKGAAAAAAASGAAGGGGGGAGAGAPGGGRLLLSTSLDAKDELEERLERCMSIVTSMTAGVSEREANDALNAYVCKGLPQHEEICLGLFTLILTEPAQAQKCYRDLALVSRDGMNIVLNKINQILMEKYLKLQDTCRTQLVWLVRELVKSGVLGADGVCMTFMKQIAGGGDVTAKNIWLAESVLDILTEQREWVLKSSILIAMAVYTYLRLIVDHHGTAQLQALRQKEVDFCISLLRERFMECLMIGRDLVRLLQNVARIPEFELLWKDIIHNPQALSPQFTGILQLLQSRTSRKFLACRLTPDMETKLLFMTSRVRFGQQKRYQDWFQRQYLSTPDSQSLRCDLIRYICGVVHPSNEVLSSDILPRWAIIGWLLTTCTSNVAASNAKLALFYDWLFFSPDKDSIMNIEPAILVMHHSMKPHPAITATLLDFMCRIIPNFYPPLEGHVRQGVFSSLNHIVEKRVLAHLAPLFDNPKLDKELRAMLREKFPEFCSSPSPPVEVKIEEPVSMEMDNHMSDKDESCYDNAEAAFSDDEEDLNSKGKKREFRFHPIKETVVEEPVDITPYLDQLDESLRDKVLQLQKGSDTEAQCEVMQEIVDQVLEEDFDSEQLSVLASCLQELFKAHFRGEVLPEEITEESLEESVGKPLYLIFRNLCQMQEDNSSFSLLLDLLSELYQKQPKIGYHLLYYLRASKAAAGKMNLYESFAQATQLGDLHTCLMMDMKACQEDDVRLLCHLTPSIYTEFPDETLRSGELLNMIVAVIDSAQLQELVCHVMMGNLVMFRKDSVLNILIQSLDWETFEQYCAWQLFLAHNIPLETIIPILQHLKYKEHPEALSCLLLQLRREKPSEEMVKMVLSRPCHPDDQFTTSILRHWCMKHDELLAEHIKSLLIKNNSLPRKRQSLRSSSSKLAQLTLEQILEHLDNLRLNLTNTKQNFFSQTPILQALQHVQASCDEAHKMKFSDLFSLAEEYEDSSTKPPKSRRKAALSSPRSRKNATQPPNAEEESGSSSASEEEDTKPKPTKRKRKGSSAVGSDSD
GST-tagged C-terminal region of INTS3 (GST-INTS3^C, 514-1042 amino acids): residues 514-1042 of Q68E01
UniProt Q96AH0: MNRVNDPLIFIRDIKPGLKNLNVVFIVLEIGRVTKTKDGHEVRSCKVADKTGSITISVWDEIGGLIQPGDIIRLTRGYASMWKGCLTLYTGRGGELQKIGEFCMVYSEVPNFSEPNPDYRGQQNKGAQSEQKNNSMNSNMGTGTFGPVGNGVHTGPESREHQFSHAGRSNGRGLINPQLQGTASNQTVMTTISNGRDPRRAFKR

Tests used:
[1] = biological target: GST-tagged full-length integrator complex subunit 3 (GST-INTS3^FL) (human) (UniProt Q68E01); assay: co-purification by two-step affinity chromatography; GST-INTS3^FL, His-hNABP1 or His-hNABP2 and His-C9ORF80 co-expressed in E. coli Rosetta 2; glutathione beads followed by Ni-NTA beads; SDS-PAGE and Western blot
[2] = biological target: GST-tagged C-terminal region of INTS3 (GST-INTS3^C, 514-1042 amino acids) (human) (UniProt Q68E01); assay: pull-down; GST-INTS3^FL, -INTS3^N or -INTS3^C incubated with hNABP1/2 or C9ORF80 at 4 C for 1 h, then glutathione-agarose beads 1 h; eluted with 10 mM glutathione; Western blot; both purified
[3] = biological target: GST-tagged full-length integrator complex subunit 3 (GST-INTS3^FL) (human) (UniProt Q68E01); assay: native gel or EMSA; purified INTS3^FL-hNABP1-C9ORF80 complex with dT30, or INTS3^FL-hNABP2-C9ORF80 complex with rU30, resolved on native gel, transferred to nitrocellulose and probed with INTS3, hNABP1/2 and C9ORF80 antibodies; both purified

Measured: binding

Human nucleic acid-binding protein 1 (hNABP1) (from UniProt Q96AH0 1-204)
binds: all assays above
